Reference: patent publication US20120226036A1, “S[…] COMPOUND” (UBE INDUSTRIES, LTD., priority 2009, published 2012)
At least one read-out could not be matched to a standard name with certainty.

Amino acid sequences for entries named in this document (tags omitted). A change or cut given only in a name is not applied to a line headed by its entry.
UniProt P43116: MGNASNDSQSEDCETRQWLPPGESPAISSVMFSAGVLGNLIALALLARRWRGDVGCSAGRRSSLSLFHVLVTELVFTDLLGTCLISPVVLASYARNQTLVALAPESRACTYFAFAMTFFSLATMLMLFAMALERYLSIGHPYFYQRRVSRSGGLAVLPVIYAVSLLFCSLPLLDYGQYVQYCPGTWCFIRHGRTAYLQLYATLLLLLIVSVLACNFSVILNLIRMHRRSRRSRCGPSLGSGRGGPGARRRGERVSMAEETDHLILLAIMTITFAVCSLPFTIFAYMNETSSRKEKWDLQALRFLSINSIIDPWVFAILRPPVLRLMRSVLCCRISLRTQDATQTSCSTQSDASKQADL

Molecular target: T1, human EP2 receptor (Homo sapiens, UniProt P43116)
T1 construct: host or cells: HEK293
Assay: Measurement of EP2 agonist activity (cAMP in HEK293 cells expressing human EP2 receptor)
Format: cell-based
Conditions: Table 2 of Test Example 2; tested as active form (R1 = hydroxy group); amount of cAMP after 30 minutes; read-out: Ki value (nM) of EP2 Receptor Binding Action

Substance | Ki
(5-Phenylpentyl)(6-{(pyridin-2-ylsulfonyl)[4-(thiazol-2-yl)benzyl]aminomethyl}-pyridin-2-ylamino)acetate [Example 1] | 0.45 nM
(2,2,2-Trifluoroethyl)(6-{[4-(pyrazol-1-yl)benzyl](pyridin-3-ylsulfonyl)aminomethyl}-pyridin-2-ylamino)acetate [Example 11] | 2.8 nM
